Values from PubChem BioAssay AID1259254 (NCATS, 2017)
This is an unselected part of about 59,000 reagents. About 1,550 of all reagents (2.6%) were called active. 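G2 share is only a proxy for re-replication; each gene was hit by three separate siRNAs, and active genes were retested.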 Raw values are not corrected between plates. Entries without a mark were called inactive. The numbers tell different reagents against one gene apart. No sequences are given here. The record does not give: the amount of reagent.

- Purpose: 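Finding genes that stop cells copying their DNA twice in one cycle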 (primary screen)
- Cells: human HCT116 colorectal cancer cells
- Knock-down reagent: single siRNA against human genes
- Time to read-out: 3 days
- Read-out: 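Nuclei stained with Hoechst and imaged; cell-cycle phase assigned by DNA content; G2 share scaled per plate, non-targeting siRNA 0%, GMNN siRNA 100%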
- Reading the numbers: G2 robust z-score and G2 cells, % of GMNN control: higher = more G2 cells, more excess DNA replication; raw share of cells in G2: higher = larger share of cells with G2 DNA content
- Hit rule: 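Active siRNAs have a G2 robust z of 5 or more median absolute deviations over the median, which in these data means about 38% or higher of GMNN control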

Target gene	siRNA no.	G2 robust z-score	G2 cells, % of GMNN control	raw share of cells in G2 (%)
GNG5 (GeneID 2787)	1	-0.26	1.14	4.06
GNG5 (GeneID 2787)	2	-1.01	-4.16	3.73
GNG5 (GeneID 2787)	3	1.96	16.8	11.6
MCAT (GeneID 27349)	1	1.28	12	7.9
MCAT (GeneID 27349)	2	-0.888	-3.28	4.67
MCAT (GeneID 27349)	3	-0.996	-4.04	2.85
RFT1 (GeneID 91869)	1	-0.0108	2.89	5.31
RFT1 (GeneID 91869)	2	-0.35	0.504	3.16
RFT1 (GeneID 91869)	3	2.34	19.4	9.08
VMP1 (GeneID 81671)	1	-0.165	1.81	4.71
VMP1 (GeneID 81671)	2	-0.337	0.593	3.63
VMP1 (GeneID 81671)	3	-0.636	-1.51	1.95
CHAC1 (GeneID 79094)	1	-1.06	-4.51	3.78
CHAC1 (GeneID 79094)	2	0.648	7.53	7.01
CHAC1 (GeneID 79094)	3	10.3 (active)	75.2	31.6
CLIC3 (GeneID 9022)	1	-0.338	0.589	5.5
CLIC3 (GeneID 9022)	2	-0.573	-1.07	4.42
CLIC3 (GeneID 9022)	3	-0.483	-0.428	4.21
PLAAT5 (GeneID 117245)	1	3.57	28.1	15.3
PLAAT5 (GeneID 117245)	2	1.08	10.6	6.48
PLAAT5 (GeneID 117245)	3	-0.645	-1.57	1.36
LITATS1 (GeneID 728431)	1	-0.18	1.7	4.24
LITATS1 (GeneID 728431)	2	2.37	19.6	11
LITATS1 (GeneID 728431)	3	-0.514	-0.65	2.64
AMIGO2 (GeneID 347902)	1	1.67	14.7	9.67
AMIGO2 (GeneID 347902)	2	-0.744	-2.27	4.07
AMIGO2 (GeneID 347902)	3	-0.0798	2.41	6.94
TMEM86B (GeneID 255043)	1	-1.22	-5.61	2.34
TMEM86B (GeneID 255043)	2	-0.367	0.383	6.14
TMEM86B (GeneID 255043)	3	0.744	8.2	7.7
PHLDA2 (GeneID 7262)	1	-0.196	1.59	5.84
PHLDA2 (GeneID 7262)	2	-0.36	0.436	4.07
PHLDA2 (GeneID 7262)	3	4.92	37.6	16.6
CDRT15 (GeneID 146822)	1	0.527	6.68	6.07
CDRT15 (GeneID 146822)	2	1.28	12	6.62
CDRT15 (GeneID 146822)	3	-0.465	-0.308	2.96
PECAM1 (GeneID 5175)	1	11.6 (active)	84.9	32.4
PECAM1 (GeneID 5175)	2	-0.398	0.167	4.35
PECAM1 (GeneID 5175)	3	0.644	7.5	5.75
MRPL38 (GeneID 64978)	1	-0.728	-2.15	2.13
MRPL38 (GeneID 64978)	2	0.00411	3	5.89
MRPL38 (GeneID 64978)	3	-1.08	-4.6	2.55
DNPH1 (GeneID 10591)	1	-0.441	-0.134	4.93
DNPH1 (GeneID 10591)	2	-0.928	-3.56	2.67
DNPH1 (GeneID 10591)	3	1.24	11.7	7.56
ZGPAT (GeneID 84619)	1	-0.792	-2.61	1.61
ZGPAT (GeneID 84619)	2	4.89	37.3	16.5
ZGPAT (GeneID 84619)	3	-0.208	1.5	3.9
PIK3R6 (GeneID 146850)	1	3.21	25.6	12.4
PIK3R6 (GeneID 146850)	2	0.502	6.5	4.92
PIK3R6 (GeneID 146850)	3	-0.696	-1.93	2.39
GLYAT (GeneID 10249)	1	-0.0695	2.48	6.77
GLYAT (GeneID 10249)	2	-0.22	1.42	7.04
GLYAT (GeneID 10249)	3	2.33	19.4	10.1
THEM4 (GeneID 117145)	1	-0.233	1.33	2.21
THEM4 (GeneID 117145)	2	4.04	31.4	16.7
THEM4 (GeneID 117145)	3	0.0311	3.19	4.28
CCND1 (GeneID 595)	1	0.985	9.9	8.6
CCND1 (GeneID 595)	2	-1.41	-6.96	1.4
CCND1 (GeneID 595)	3	-1.02	-4.18	3.29
DHRS2 (GeneID 10202)	1	0.16	4.09	5.16
DHRS2 (GeneID 10202)	2	2.63	21.5	15
DHRS2 (GeneID 10202)	3	2.42	20	14.4
GPR45 (GeneID 11250)	1	3.08	24.7	14.7
GPR45 (GeneID 11250)	2	-0.0747	2.44	5.37
GPR45 (GeneID 11250)	3	-0.0531	2.59	4.06
HMGB3P24 (GeneID 646993)	1	-0.806	-2.7	2.76
HMGB3P24 (GeneID 646993)	2	-0.889	-3.29	2
HMGB3P24 (GeneID 646993)	3	-0.839	-2.94	2.11

Part of the list above, set out differently.
{"Target gene": "DNPH1 (GeneID 10591)", "siRNA no.": 1, "G2 robust z-score": -0.441, "G2 cells, % of GMNN control": -0.134, "raw share of cells in G2 (%)": 4.93}
{"Target gene": "DNPH1 (GeneID 10591)", "siRNA no.": 2, "G2 robust z-score": -0.928, "G2 cells, % of GMNN control": -3.56, "raw share of cells in G2 (%)": 2.67}
{"Target gene": "DNPH1 (GeneID 10591)", "siRNA no.": 3, "G2 robust z-score": 1.24, "G2 cells, % of GMNN control": 11.7, "raw share of cells in G2 (%)": 7.56}
{"Target gene": "ZGPAT (GeneID 84619)", "siRNA no.": 1, "G2 robust z-score": -0.792, "G2 cells, % of GMNN control": -2.61, "raw share of cells in G2 (%)": 1.61}
{"Target gene": "ZGPAT (GeneID 84619)", "siRNA no.": 2, "G2 robust z-score": 4.89, "G2 cells, % of GMNN control": 37.3, "raw share of cells in G2 (%)": 16.5}
{"Target gene": "ZGPAT (GeneID 84619)", "siRNA no.": 3, "G2 robust z-score": -0.208, "G2 cells, % of GMNN control": 1.5, "raw share of cells in G2 (%)": 3.9}
{"Target gene": "PIK3R6 (GeneID 146850)", "siRNA no.": 1, "G2 robust z-score": 3.21, "G2 cells, % of GMNN control": 25.6, "raw share of cells in G2 (%)": 12.4}
{"Target gene": "PIK3R6 (GeneID 146850)", "siRNA no.": 2, "G2 robust z-score": 0.502, "G2 cells, % of GMNN control": 6.5, "raw share of cells in G2 (%)": 4.92}
{"Target gene": "PIK3R6 (GeneID 146850)", "siRNA no.": 3, "G2 robust z-score": -0.696, "G2 cells, % of GMNN control": -1.93, "raw share of cells in G2 (%)": 2.39}
{"Target gene": "GLYAT (GeneID 10249)", "siRNA no.": 1, "G2 robust z-score": -0.0695, "G2 cells, % of GMNN control": 2.48, "raw share of cells in G2 (%)": 6.77}
